# Data as given in the supplement of paper PMC12819154, “High-throughput peptide-centric local stability assay extends protein–ligand identification to membrane proteins, tissues and bacteria” (Nature Structural & Molecular Biology, 2025).
# Protein sequences, listed by entry. Tags and fused reporters are not part of them. Lines headed by an entry give the natural chain unless they say otherwise; changes in a name come on top.
# UniProt Q86YC2, whole entry: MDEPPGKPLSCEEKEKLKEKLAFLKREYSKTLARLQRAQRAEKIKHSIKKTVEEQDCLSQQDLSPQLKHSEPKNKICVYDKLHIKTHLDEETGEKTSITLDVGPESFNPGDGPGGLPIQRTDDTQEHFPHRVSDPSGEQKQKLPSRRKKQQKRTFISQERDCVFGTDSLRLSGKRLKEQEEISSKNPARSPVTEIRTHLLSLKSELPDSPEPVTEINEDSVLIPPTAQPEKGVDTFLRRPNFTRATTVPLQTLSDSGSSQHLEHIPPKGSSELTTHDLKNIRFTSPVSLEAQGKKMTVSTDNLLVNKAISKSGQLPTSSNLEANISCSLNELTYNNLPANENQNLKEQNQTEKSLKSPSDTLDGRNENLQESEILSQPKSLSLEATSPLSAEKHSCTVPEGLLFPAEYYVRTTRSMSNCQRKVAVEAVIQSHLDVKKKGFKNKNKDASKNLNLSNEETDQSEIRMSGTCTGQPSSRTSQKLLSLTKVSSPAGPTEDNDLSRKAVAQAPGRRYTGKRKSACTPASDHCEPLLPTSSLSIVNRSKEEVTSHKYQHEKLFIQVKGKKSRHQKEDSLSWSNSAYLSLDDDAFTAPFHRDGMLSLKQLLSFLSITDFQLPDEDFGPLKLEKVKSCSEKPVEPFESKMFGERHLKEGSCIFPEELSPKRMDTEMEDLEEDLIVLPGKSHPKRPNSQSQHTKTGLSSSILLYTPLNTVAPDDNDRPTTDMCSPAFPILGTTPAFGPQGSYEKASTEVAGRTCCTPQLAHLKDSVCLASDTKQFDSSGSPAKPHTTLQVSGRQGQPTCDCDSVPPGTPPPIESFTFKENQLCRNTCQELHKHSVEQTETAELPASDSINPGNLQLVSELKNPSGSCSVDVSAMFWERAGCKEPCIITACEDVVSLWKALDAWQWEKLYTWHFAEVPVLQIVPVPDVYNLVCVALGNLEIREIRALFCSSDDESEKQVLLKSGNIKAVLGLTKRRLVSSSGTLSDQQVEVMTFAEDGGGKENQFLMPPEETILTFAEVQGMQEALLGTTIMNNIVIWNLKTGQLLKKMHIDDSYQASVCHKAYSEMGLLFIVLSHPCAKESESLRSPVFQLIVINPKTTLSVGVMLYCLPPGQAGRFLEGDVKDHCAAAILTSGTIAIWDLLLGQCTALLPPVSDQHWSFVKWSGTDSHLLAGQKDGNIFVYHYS
# UniProt Q8N122, whole entry: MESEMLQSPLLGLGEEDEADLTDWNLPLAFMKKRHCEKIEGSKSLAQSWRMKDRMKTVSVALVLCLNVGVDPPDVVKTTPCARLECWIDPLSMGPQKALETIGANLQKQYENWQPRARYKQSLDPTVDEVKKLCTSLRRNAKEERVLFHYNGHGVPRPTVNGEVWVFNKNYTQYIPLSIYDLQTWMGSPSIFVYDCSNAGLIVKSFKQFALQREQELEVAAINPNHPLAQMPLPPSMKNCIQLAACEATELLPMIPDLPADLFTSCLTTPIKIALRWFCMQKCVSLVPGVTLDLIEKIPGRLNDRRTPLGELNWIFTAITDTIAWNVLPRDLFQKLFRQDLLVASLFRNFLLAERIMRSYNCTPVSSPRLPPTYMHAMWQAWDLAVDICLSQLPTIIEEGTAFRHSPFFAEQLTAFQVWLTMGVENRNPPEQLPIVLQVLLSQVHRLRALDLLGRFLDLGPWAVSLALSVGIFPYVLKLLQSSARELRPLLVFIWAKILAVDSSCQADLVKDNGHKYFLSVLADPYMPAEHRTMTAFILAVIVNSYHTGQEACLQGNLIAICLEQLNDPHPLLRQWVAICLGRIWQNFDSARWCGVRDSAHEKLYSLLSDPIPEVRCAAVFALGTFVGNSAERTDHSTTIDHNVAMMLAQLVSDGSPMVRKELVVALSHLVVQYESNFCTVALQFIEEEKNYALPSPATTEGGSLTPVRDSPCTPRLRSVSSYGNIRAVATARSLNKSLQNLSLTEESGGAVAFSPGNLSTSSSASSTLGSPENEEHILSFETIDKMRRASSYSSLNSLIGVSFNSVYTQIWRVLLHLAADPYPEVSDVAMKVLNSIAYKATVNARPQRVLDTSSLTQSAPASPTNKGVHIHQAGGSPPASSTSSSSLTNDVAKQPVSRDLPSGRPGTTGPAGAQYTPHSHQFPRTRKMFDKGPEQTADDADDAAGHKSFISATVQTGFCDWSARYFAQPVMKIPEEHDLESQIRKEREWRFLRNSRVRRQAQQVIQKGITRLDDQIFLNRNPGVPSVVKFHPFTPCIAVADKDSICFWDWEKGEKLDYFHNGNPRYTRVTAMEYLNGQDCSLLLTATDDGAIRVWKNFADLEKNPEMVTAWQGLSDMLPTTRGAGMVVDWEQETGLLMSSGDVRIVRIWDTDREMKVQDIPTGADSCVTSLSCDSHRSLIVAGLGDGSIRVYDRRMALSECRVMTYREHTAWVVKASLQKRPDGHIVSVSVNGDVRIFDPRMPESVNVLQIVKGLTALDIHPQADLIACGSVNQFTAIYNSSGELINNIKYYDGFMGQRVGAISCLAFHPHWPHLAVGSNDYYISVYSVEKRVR
# UniProt Q8IVD9: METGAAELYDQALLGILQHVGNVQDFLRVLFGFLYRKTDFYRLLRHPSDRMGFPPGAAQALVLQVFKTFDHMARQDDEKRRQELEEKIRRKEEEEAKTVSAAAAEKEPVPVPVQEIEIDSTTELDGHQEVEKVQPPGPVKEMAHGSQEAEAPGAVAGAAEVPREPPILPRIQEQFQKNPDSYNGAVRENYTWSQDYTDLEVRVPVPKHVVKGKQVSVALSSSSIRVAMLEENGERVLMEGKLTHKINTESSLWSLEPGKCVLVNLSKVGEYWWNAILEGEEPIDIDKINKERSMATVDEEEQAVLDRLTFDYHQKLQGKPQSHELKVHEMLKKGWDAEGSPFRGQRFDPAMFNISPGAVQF
# UniProt Q8IWS0: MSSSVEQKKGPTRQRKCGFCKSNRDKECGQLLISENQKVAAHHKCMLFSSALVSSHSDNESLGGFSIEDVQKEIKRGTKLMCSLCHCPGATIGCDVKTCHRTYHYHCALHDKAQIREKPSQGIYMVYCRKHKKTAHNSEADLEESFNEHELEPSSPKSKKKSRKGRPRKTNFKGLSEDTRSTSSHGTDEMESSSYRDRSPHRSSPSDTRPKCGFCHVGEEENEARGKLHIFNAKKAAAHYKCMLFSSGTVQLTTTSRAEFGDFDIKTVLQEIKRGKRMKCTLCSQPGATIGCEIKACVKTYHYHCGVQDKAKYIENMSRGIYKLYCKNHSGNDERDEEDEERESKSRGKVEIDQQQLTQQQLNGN
# UniProt Q8N131: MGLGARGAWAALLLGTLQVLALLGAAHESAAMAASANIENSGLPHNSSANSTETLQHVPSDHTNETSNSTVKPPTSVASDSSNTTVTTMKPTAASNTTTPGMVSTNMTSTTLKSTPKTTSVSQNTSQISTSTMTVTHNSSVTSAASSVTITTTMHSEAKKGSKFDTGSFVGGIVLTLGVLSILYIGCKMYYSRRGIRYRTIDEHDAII
# UniProt Q8IV08: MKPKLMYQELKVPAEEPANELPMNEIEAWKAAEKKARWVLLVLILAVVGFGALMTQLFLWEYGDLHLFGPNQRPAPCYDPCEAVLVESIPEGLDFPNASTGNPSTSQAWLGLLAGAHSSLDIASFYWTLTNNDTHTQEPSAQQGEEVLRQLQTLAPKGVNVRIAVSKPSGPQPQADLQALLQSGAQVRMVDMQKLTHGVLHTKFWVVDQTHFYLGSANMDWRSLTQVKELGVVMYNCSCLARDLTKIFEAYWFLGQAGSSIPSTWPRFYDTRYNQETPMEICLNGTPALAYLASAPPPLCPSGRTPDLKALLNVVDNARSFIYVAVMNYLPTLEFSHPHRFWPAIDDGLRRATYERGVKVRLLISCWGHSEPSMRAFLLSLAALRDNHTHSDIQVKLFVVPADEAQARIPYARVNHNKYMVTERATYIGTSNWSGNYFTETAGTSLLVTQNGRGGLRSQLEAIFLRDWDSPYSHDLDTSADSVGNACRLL
# UniProt Q8IXW5, whole entry: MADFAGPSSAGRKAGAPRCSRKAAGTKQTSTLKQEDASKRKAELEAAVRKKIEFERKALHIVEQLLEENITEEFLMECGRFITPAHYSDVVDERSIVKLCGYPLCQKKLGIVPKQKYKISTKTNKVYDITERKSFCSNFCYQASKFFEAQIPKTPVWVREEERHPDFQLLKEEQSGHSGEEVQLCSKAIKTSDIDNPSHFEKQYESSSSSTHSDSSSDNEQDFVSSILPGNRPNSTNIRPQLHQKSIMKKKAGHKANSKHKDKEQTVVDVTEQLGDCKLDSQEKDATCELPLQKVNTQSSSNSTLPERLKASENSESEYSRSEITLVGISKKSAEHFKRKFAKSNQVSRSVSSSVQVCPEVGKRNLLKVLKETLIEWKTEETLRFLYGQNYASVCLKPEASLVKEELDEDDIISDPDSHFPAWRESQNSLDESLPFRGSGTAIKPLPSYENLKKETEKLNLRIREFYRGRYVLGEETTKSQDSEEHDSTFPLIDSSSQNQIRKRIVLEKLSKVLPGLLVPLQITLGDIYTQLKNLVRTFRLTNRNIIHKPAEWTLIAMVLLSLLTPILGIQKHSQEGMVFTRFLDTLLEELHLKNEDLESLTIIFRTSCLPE
# UniProt Q8IVW6: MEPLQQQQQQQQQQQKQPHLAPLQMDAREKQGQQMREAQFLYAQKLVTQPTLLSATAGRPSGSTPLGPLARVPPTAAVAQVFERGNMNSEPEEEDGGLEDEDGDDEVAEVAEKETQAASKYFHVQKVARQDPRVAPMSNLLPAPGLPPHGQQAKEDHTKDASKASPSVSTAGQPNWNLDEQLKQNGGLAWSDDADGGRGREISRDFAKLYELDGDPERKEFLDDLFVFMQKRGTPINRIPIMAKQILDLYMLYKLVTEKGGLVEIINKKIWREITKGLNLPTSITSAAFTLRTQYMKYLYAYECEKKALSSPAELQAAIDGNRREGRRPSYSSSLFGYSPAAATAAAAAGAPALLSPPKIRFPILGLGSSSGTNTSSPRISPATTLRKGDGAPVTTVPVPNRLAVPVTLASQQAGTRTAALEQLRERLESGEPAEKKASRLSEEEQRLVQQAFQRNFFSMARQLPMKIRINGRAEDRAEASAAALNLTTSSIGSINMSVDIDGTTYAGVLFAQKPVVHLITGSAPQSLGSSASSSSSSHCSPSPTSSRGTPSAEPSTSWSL
# UniProt Q86YG4: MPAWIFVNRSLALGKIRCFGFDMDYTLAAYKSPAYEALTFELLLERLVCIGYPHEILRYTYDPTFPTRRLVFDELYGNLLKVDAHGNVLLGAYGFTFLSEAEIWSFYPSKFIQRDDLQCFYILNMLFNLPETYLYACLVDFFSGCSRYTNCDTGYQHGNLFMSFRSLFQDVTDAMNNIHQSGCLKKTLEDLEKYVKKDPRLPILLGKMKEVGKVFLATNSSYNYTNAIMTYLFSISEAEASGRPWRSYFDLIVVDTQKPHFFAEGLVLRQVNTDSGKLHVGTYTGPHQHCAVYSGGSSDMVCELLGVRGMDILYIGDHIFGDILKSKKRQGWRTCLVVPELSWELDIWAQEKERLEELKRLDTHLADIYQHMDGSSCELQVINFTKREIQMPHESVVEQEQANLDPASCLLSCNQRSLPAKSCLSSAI
# UniProt Q8IUR7, whole entry: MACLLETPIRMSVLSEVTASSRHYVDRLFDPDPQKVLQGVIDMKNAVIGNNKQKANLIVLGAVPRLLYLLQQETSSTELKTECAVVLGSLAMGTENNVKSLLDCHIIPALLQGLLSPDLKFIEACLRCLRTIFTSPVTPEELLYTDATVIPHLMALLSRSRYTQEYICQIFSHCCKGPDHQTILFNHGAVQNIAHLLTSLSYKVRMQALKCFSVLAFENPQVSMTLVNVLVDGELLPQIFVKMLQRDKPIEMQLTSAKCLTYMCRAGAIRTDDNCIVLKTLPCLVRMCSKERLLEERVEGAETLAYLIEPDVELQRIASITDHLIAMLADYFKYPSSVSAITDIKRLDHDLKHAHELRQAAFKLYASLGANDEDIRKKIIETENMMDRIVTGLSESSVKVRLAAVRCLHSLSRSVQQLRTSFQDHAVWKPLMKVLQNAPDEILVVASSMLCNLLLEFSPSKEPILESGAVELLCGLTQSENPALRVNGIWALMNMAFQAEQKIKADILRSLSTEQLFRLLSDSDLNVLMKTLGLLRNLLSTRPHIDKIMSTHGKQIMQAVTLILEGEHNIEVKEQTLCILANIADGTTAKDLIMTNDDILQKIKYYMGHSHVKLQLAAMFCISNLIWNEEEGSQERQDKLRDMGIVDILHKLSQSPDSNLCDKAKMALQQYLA
# UniProt Q86Y37: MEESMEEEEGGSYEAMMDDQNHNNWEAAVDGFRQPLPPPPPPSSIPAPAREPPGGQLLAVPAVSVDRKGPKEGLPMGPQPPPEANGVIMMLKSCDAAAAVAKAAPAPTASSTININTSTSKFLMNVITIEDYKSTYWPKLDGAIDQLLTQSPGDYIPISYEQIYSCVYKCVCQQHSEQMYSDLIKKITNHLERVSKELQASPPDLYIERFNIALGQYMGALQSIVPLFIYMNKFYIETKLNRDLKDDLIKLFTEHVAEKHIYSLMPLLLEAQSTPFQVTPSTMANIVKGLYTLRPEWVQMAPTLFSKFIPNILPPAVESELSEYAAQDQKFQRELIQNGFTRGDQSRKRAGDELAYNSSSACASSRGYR
# This is one part of the list. Small differences around the control level are noise.
# Compound: Cc1nc(Nc2ncc(C(=O)Nc3c(C)cccc3Cl)s2)cc(N2CCN(CCO)CC2)n1 [dasatinib]
# Test: log2 fold change of tryptic peptide abundance, ligand vs vehicle (limited proteolysis) (log2 ratio); higher = more trypsin-susceptible (destabilized)
# Conditions: ligand concentration: 5 uM; sample: K562 cleared lysate
row,Target,log2 fold change
1,"PALB2 (peptide sequence: TDDTQEHFPHR, peptide start residue: 121) (UniProt Q86YC2)",0.3
2,"UniProt Q8IW41 (peptide sequence: DLKPENLLFK, peptide start residue: 148)",0.545
3,"UniProt Q86VE0 (peptide sequence: RTGQEVQKR, peptide start residue: 71)",0.0459
4,"RPTOR (peptide sequence: MFDKGPEQTADDADDAAGHK, peptide start residue: 929) (UniProt Q8N122)",-0.34
5,"NT5DC3 (peptide sequence: YICYAEQTR, peptide start residue: 274) (UniProt Q86UY8)",0.116
6,"KIAA0319L (peptide sequence: LLHGQNGSVPNGQTPLK, peptide start residue: 1024) (UniProt Q8IZA0)",0.432
7,"NUDCD3 (peptide sequence: NPDSYNGAVR, peptide start residue: 178) (UniProt Q8IVD9)",0.53
8,"PHF6 (peptide sequence: AEFGDFDIK, peptide start residue: 258) (UniProt Q8IWS0)",-0.0815
9,"ZC3HC1 (peptide sequence: SMGTGDTPGLEVPSSPLRK, peptide start residue: 381) (UniProt Q86WB0)",-0.253
10,"DZIP3 (peptide sequence: LHYQCEDFKR, peptide start residue: 760) (UniProt Q86Y13)",0.306
11,"C11orf74 (peptide sequence: FSPAEIENIKELCK, peptide start residue: 192) (UniProt Q86VG3)",0.35
12,"TMEM123 (peptide sequence: TIDEHDAII, peptide start residue: 200) (UniProt Q8N131)",0.00821
13,"PLD3 (peptide sequence: ALLNVVDNAR, peptide start residue: 310) (UniProt Q8IV08)",-0.181
14,"AHI1 (peptide sequence: ETTSDDVSAANTNNLKK, peptide start residue: 76) (UniProt Q8N157)",0.43
15,"CCAR1 (peptide sequence: GYKQQLVEK, peptide start residue: 592) (UniProt Q8IX12)",0.839
16,"COA5 (peptide sequence: YAFFECKR, peptide start residue: 52) (UniProt Q86WW8)",0.272
17,"RTTN (peptide sequence: GTHHSQNPSPGSSSPRPSVVGR, peptide start residue: 297) (UniProt Q86VV8)",-0.0228
18,"RHPN2 (peptide sequence: SASTLCLPSVGAARPQVK, peptide start residue: 652) (UniProt Q8IUC4)",-0.506
19,"RPAP2 (peptide sequence: ETEKLNLR, peptide start residue: 455) (UniProt Q8IXW5)",-0.714

row,Target,log2 fold change
1,"LIX1L (peptide sequence: RITDEFIEK, peptide start residue: 181) (UniProt Q8IVB5)",0.265
2,"ARID3B (peptide sequence: LVQQAFQR, peptide start residue: 448) (UniProt Q8IVW6)",-0.121
3,"LCA5 (peptide sequence: NLELSTNSFQR, peptide start residue: 245) (UniProt Q86VQ0)",0.616
4,"VRK3 (peptide sequence: SKGSGSRPPTPK, peptide start residue: 95) (UniProt Q8IV63)",0.739
5,"UniProt Q8IY82 (peptide sequence: KQQEIRAQEK, peptide start residue: 266)",-0.65
6,"UniProt Q86YG4 (peptide sequence: ERLEELK, peptide start residue: 353)",-0.0472
7,"PARG (peptide sequence: DNFYQHNVEK, peptide start residue: 116) (UniProt Q86W56)",0.144
8,"ARMC8 (peptide sequence: CLHSLSR, peptide start residue: 407) (UniProt Q8IUR7)",-0.114
9,"UniProt Q86UY6 (peptide sequence: FGDSHHSHAGGHCGGCCH, peptide start residue: 220)",-0.364
10,"CACUL1 (peptide sequence: EPPGGQLLAVPAVSVDRK, peptide start residue: 51) (UniProt Q86Y37)",0.33
11,"UniProt Q8IWG1 (peptide sequence: KVKTYQK, peptide start residue: 843)",-0.151
12,"UniProt Q86YS7 (peptide sequence: NQTYSFSPSK, peptide start residue: 289)",0.271
13,"SLX4 (peptide sequence: SGLAVQAVTQHTPR, peptide start residue: 1280) (UniProt Q8IY92)",0.224
14,"ITPRIP (peptide sequence: LGEDMLCLLHGR, peptide start residue: 262) (UniProt Q8IWB1)",0.0846
15,"PACS2 (peptide sequence: TESLVIPSTR, peptide start residue: 414) (UniProt Q86VP3)",-0.301
16,"ANKHD1 (peptide sequence: VPTHTLAMVVPPQEPDR, peptide start residue: 718) (UniProt Q8IWZ3)",0.501
17,"KIF18B (peptide sequence: RGSLPDTQPSQGPSTPK, peptide start residue: 660) (UniProt Q86Y91)",0.353
18,"DNAJC10 (peptide sequence: AYEVLKDEDLRK, peptide start residue: 83) (UniProt Q8IXB1)",-0.234
19,"LUZP1 (peptide sequence: RTQSSLTVSEVLTR, peptide start residue: 992) (UniProt Q86V48)",0.519

# Another view of part of the listing above:
row	Target	log2 fold change
1	PALB2 (peptide sequence: TDDTQEHFPHR, peptide start residue: 121) (UniProt Q86YC2)	0.3
1	LIX1L (peptide sequence: RITDEFIEK, peptide start residue: 181) (UniProt Q8IVB5)	0.265
